Experimental findings from PubChem BioAssay AID2685 (National Center for Advancing Translational Sciences (NCATS), 2010) are described below.

This is one part of the list. These are further read-outs of the screen, such as a control signal, another cell line or another target. No call is given for them. The list favours compounds with an active or inconclusive main result. The note in brackets gives the kind of curve behind each potency; many fits are weak.

This assay in a line: qHTS Assay for Lipid Storage Modulators in Drosophila S3 Cells.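 As to cell number change: cells counted by Cell Tracker Red CMTPX staining in the red channel.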 The following applies: BODIPY lipid droplet fluorescence, 18-24 h; for cell number change: measured here: cell count max response, cells fed with added oleic acid. A digest of the protocol: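 Laser-scanning cytometry quantifies lipid droplet accumulation (500–530 nm total intensity; droplet/cell object ratio) in oleic acid-fed (400 uM added) Drosophila S3 cells treated with a concentration series. 20 uM Triacsin C defined 100% inhibition.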
Background: Quantitative high-throughput screening tests each substance at several concentrations.

[1] abbreviates: measured here: cell number channel AC50, cells fed with added oleic acid.
[2] abbreviates: measured here: lipid fluorescence (Fed channel) AC50, cells fed with added oleic acid.

For orientation: AC50 means the concentration giving half of the maximal activity seen. Take `CC1C(=O)N2CCCc3cc(S(=O)(=O)N4CCC(C(N)=O)CC4)cc1c32` (stereo not drawn): the cell number change was -0.763%. Also, the half-maximal activity concentration (AC50) under setting [1] is 6.51 µM [falling, single point]. With `CN(C)c1ccc(/C=N/NC(=O)c2cnc3ccccc3c2)cc1`, the cell number change turned out to be 10.9%. Moreover, the AC50 under setting [2] is 0.326 µM [rising, full curve]. For `CCOc1ccccc1NC(=O)CN(c1ccc(Cl)cc1)S(C)(=O)=O`, the cell number change was -15.4%. Besides, the AC50 under setting [2] is 29.1 µM [falling, single point].

As for `CCCc1cc(C(=O)N2CCN(c3ccc(C(F)(F)F)cn3)CC2)sc1C`, the cell number change came to 6.35%. On to `O=C(Nc1ccccc1F)C1CCCN(S(=O)(=O)c2cccc3cccnc23)C1` (stereo not drawn), for which the cell number change worked out at 10.6%. Besides, the AC50 under setting [2] is 0.82 µM [rising, partial curve]. Take `CCN(CC(=O)Nc1ccc(NC(C)=O)cc1)C(=O)C12CC3CC(CC(Cl)(C3)C1)C2`: the cell number change is -24.3%. As for `COc1cc(-c2cc(C(=O)N(C)Cc3ccccc3)c3ccccc3n2)cc(OC)c1OC`, the cell number change is -10.3%. The half-maximal activity concentration (AC50) under setting [2] is 1.16 µM [falling, full curve].

For the molecule `c1ccc(-c2csc(NNC3=NCCCCC3)n2)cc1`, the cell number change is -74.7%. Also, the half-maximal activity concentration (AC50) under setting [1] was 18.4 µM [falling, partial curve]. The concentration at half-maximal activity (AC50) under setting [2] is 14.6 µM [falling, partial curve]. `CC1(C)C(=O)Nc2ccccc2N1C(=O)CN1C(=O)NC(CCc2ccccc2)C1=O` (stereo not drawn): the cell number change is -78.5%. The AC50 under setting [1] was 29.1 µM [falling, single point]. For the same molecule, the AC50 under setting [2] was 29.1 µM [falling, single point]. Consider `O=C(Cc1ccc(-n2c(=S)[nH]c3ccccc3c2=O)cc1)N1CCN(c2ccccc2)CC1`, for which the cell number change turned out to be 160%. Besides, the AC50 under setting [1] was 25.9 µM [rising, partial curve]. In addition, the AC50 under setting [2] was 1.46 µM [rising, full curve, poor fit].

With `CC1Cc2ccccc2N1C(=O)COC(=O)CSc1ccc(F)cc1` (stereo not drawn), the cell number change was -30%. For `Cc1cc(C)nc(SCc2ccc3nonc3c2)n1`, the cell number change is -29%. For the same molecule, under setting [2], the concentration at half-maximal activity (AC50) was 29.1 µM [falling, single point]. Take `C#CCOCCOCCOCCNc1nc(N2CCN(C(=O)CCCCCCCCCCNC(=O)Cn3cc(CCCCCN)nn3)CC2)nc(N2CCN(C(=O)CCCCCCCCCCNC(=O)Cn3cc(C[C@@H](C)O)nn3)CC2)n1`: the cell number change turned out to be 10.2%. Under setting [2], the half-maximal activity concentration (AC50) is 0.411 µM [falling, single point].

With `CC(=O)N[C@@H](Cc1c[nH]c2ccccc12)C(=O)OCC(=O)Nc1ccc(S(=O)(=O)N(C)C)cc1`, the cell number change amounted to 1.32%. Moreover, under setting [2], the AC50 was 0.326 µM [falling, partial curve, poor fit]. Turning to `Cn1c(=O)c2c(nc(SCC(=O)N3CCOCC3)n2C)n(C)c1=O`, the cell number change was found to be 15.2%. Consider `COc1cc2c(cc1OC)C(c1ccc(-c3ccc(Cl)cc3Cl)o1)=NCC2`, for which the cell number change was -45.8%. Besides, under setting [1], the AC50 is 10.3 µM [falling, single point]. In addition, the concentration at half-maximal activity (AC50) under setting [2] is 23.1 µM [falling, single point]. For the molecule `C=C(C)Cn1c(SCC(=O)N/N=C/c2c(O)ccc3ccccc23)nc2ccccc2c1=O`, the cell number change is 133%. The AC50 under setting [1] is 16.4 µM [rising, single point].

For `COC(=O)C1=C(C)N(C)C(C)=C(C(=O)OC)C1c1ccc(Cl)cc1`, the cell number change turned out to be 41.4%. In addition, under setting [1], the concentration at half-maximal activity (AC50) is 2.59 µM [rising, full curve]. The AC50 under setting [2] is 6.51 µM [rising, partial curve]. `CCCCCCCNC(=O)CN1C(=O)CSc2ccc(S(=O)(=O)N3CCOCC3)cc21`: the AC50 under setting [2] was 0.116 µM [falling, single point]. In the case of `COc1cc(C(=O)NCCC(=O)N2CCN(C)CC2)cc(OC)c1OC`, the cell number change amounted to 33.6%. Regarding `Cc1ccc(C)c(NC(=O)CSc2nc3c(oc4ccccc43)c(=O)n2-c2ccccc2)c1`, the cell number change is 1.4%. The half-maximal activity concentration (AC50) under setting [2] was 0.366 µM [rising, single point]. As to `Clc1ccc(OCCn2ccnc2)c(Br)c1`, the cell number change was determined as 2.82%. Moreover, under setting [2], the AC50 is 11.6 µM [rising, partial curve]. Take `Cc1nn(CC(=O)NC2CCCCC2)c(=O)c2cccn12`: the cell number change was 35.5%. Besides, the AC50 under setting [1] is 32.6 µM [rising, single point]. As to `O=S(=O)(c1cccc2cccnc12)N1CCN(Cc2ccc3c(c2)OCO3)CC1`, the cell number change is -4.31%. The AC50 under setting [2] was 6.51 µM [rising, single point]. Take `Cc1ccc(N2C(=O)c3ccccc3C2(O)c2ncc[nH]2)cc1` (stereo not drawn): the cell number change was determined as 3.84%. For `COc1ccc([C@]23Cc4ccccc4C(O2)C2=C(CCCC2=O)O3)cc1`, the cell number change worked out at 29.9%. Further, the concentration at half-maximal activity (AC50) under setting [2] was 5.31 µM [rising, single point]. As for `COCC(=O)N(Cc1cc2cc(C)ccc2[nH]c1=O)c1cccc(C)c1C`, the cell number change turned out to be 5.11%. Also, under setting [2], the half-maximal activity concentration (AC50) was 25.9 µM [rising, single point]. Turning to `CCCc1[nH]n(-c2nc3ccccc3s2)c(=O)c1C=NCCCOC`, the cell number change worked out at 25.8%. Further, the concentration at half-maximal activity (AC50) under setting [1] is 1.64 µM [rising, full curve, poor fit]. Besides, the AC50 under setting [2] is 1.3 µM [rising, full curve]. As to `CN(C)c1ccc(/C=C(/C(=O)c2ccc(Cl)cc2Cl)n2cncn2)cc1`, the cell number change was -103%. In addition, under setting [1], the AC50 was 18.4 µM [falling, partial curve]. The half-maximal activity concentration (AC50) under setting [2] is 20.6 µM [falling, single point]. Regarding `COc1ccc([N+](=O)[O-])cc1N(CC(=O)NC1CCCC1)S(C)(=O)=O`, the cell number change was 6.44%. For the molecule `COc1cc2c(cc1NC(=O)CCC(=O)O)oc1ccccc12`, the cell number change came out at 18.9%. In addition, the AC50 under setting [2] is 1.46 µM [rising, full curve, poor fit].

For `Cc1ccc(Nc2nnc(SCC(=O)Nc3ccc(S(=O)(=O)N4CCOCC4)cc3)s2)cc1`, the cell number change is -15.8%.

Regarding `COC(=O)c1ccc(OCCCCN(C)Cc2ccccc2)cc1`, the cell number change was -1.17%.

Turning to `Cc1ccc(S(=O)(=O)C2(C(=O)N3CCCCCC3)CC2)cc1`, the cell number change was -14.8%. The AC50 under setting [2] is 25.9 µM [falling, partial curve, poor fit]. Regarding `O=C(CSCc1cnn(-c2ccccc2)c1-n1cccc1)NCc1cccs1`, the AC50 under setting [1] was 5.8 µM [rising, single point].

As to `COc1ccc(C(=O)OCC(=O)c2c(N)n(C)c(=O)n(C)c2=O)cc1OC`, the cell number change is 53.5%. Also, the AC50 under setting [1] was 0.82 µM [rising, full curve]. For `Cc1cccc(NC(=S)NCCC(c2ccccc2)c2ccccc2)c1`, the cell number change was -37%. Besides, the AC50 under setting [1] was 3.66 µM [falling, full curve]. Under setting [2], the AC50 was 4.11 µM [falling, full curve]. Regarding `COc1ccc(C2CC(=O)OC3=C2C(=O)CC(C)(C)C3)c(OC)c1` (stereo not drawn), the cell number change was determined as 25.9%. For the same molecule, under setting [1], the AC50 was 0.0259 µM [rising, full curve, poor fit].
